Here are results for 17 compounds from PubChem BioAssay AID493014 (National Center for Advancing Translational Sciences (NCATS), 2011).

This is one part of the list. These are further read-outs of the screen, such as a control signal, another cell line or another target. No call is given for them. The list favours compounds with an active or inconclusive main result. Words in brackets tell the shape of the fitted curve; partial curves, single points and poor fits give uncertain potencies.

The assay can be described thus: qHTS Assay to Find Inhibitors of Chronic Active B-Cell Receptor Signaling. Particulars: ABC-DLBCL IkBa-CBG/CBR reporter, luminescence ratio (green luciferase fused to IkBa over red control in TMD8 lymphoma cells), 4 h; measured here: CBR red luminescence, cell number. The gist of the method: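 Cell line TMD8 (human ABC DLBCL), stably expressing tet-inducible CBG68-IkBa fusion and CBR; IMDM/0.5% FBS; cpd up to 46 uM; dox induction, 4 h, 37C/5% CO2; dual luminescence; green/red ratio; MG132 control.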
For the compound `CC(NC(=O)c1ccccc1F)c1nnc(SCc2nc3ccccc3c(=O)[nH]2)n1C` (configuration not stated), the half-maximal activity concentration (AC50) was 7.94 µM [falling, partial curve, poor fit].
As to `Cc1cc(C)cc(NC(=O)CN(c2ccc(F)cc2)S(C)(=O)=O)c1`, the concentration at half-maximal activity (AC50) is 11.2 µM [falling, partial curve, poor fit].
With `O=C(CSc1nnc2ccccn12)Nc1ccccc1C(=O)NC1CC1`, the AC50 was 6.31 µM [falling, single point].
For the compound `Cc1ccc(-c2nc3cnccn3c2Nc2ccc3c(c2)OCCO3)o1`, the AC50 is 6.51 µM [rising, single point].
In the case of `CCOC(=O)c1sc2nc3c(SCCC(=O)O)cc(C(=O)c4cc(OC)ccc4O)cn3c(=O)c2c1C`, the AC50 is 5.62 µM [rising, partial curve, poor fit].
As for `CCN1CCN(CC(=O)N2N=C(c3cccs3)CC2c2ccc(C)cc2)C(=O)C1=O` (configuration not stated), the AC50 is 8.91 µM [rising, partial curve].
For the compound `CC(C)(C)c1ccc(C(=O)NN2C(=O)CSC2=S)cc1`, the AC50 was 35.5 µM [rising, single point].
The same measure for `Cc1ccc(OCCC(=O)OCC(=O)N2CCN(S(=O)(=O)c3ccc(Cl)cc3)CC2)cc1`: 7.31 µM [falling, partial curve, poor fit]; for `O=C(Nc1ccccc1)Nc1csc2ccccc12`: 17.8 µM [falling, single point].
`C=CCn1c(SCC(=O)Nc2sccc2C(N)=O)nc2ccccc2c1=O`: the AC50 is 4.11 µM [falling, partial curve, poor fit].
As for `COc1ccc(CC(=O)NNS(=O)(=O)c2ccccc2[N+](=O)[O-])cc1`, the AC50 was 11.2 µM [rising, partial curve, poor fit].
On to `O=C(NCc1ccccc1F)C1CCCN(C(=O)NC2CCCCC2)C1` (configuration not stated), for which the AC50 is 14.1 µM [falling, partial curve].
The same measure for `O=[N+]([O-])c1ccc(Cl)c(-c2ccc(/C=N/c3c(-c4ccco4)nc4ccccn34)o2)c1`: 31.6 µM [rising, single point]; for `CCOC(=O)Cc1csc(NC(=O)c2sc3nc4ccc(CC)cc4cc3c2N)n1`: 7.08 µM [falling, partial curve]; for `CCN(CC)C(=O)c1[nH]cnc1C(=O)Nc1ccc(C)cc1`: 16.4 µM [rising, partial curve, poor fit].
For `C=CCSc1nnc(-c2cccc3ccccc23)o1`, the AC50 is 0.517 µM [rising, full curve, poor fit].
In the case of `Clc1ccccc1-c1ccc(CN2CCN(c3ccccc3)CC2)o1`, the AC50 was 0.82 µM [rising, full curve, poor fit].

Broadly, the AC50 is the midpoint of the concentration-response curve, whichever way the signal moves.
